Assay in all cases: pull-down; GST-MYPT1 fragment and GFP-kinase fragment co-transfected in COS7 cells; lysate incubated with Glutathione Sepharose beads 1 h at 4 °C in 20 mM Tris-HCl pH 7.5, 1 mM EDTA, 1 mM DTT, 50 mM NaCl, 0.5% NP-40; washed three times; immunoblot with anti-GST or anti-GFP
Background: In western blotting, separated proteins are transferred to a membrane and probed.

Assay [1] concerns the target T1, GST-MYPT1 N-terminal fragment (1–300 aa) (rat) (UniProt Q10728).
T1 sequence: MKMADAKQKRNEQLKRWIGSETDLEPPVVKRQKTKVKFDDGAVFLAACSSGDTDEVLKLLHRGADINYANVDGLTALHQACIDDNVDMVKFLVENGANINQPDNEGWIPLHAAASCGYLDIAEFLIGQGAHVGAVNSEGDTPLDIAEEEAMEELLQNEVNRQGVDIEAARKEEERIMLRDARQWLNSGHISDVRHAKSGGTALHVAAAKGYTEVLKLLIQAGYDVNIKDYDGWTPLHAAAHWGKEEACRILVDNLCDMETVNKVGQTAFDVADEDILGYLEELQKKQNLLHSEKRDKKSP

Assay [2] addresses T2, GST-MYPT1-684–868 aa (rat) (UniProt Q10728).
T2 sequence: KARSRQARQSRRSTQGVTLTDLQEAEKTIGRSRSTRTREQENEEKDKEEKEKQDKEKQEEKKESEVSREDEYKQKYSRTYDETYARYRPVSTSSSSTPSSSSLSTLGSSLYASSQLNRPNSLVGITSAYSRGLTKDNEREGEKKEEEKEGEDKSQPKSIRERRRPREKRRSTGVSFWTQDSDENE

The target of assay [3] is T3, GST-MYPT1-655–703 aa (rat) (UniProt Q10728).
T3 sequence: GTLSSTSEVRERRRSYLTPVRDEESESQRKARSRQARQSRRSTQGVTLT

No constants are given. Whether binding was seen depends on the method and setting. Binding seen in cells or lysates may run through a third protein. For part of these data: Binding can be weak; no strength is given. Sequences can lack the tags named with a protein.

Take “GFP-Rho-kinase-cat-L (6–553 aa, long form of catalytic fragment) (bovine) (domain or fragment)”: the values for the binding entry in assay [1], in assay [2] and in assay [3] were “no binding”, “binds” and “no binding”, respectively.

The record behind these values is article PMC8869655, “Identification of the Kinase-Substrate Recognition Interface between MYPT1 and Rho-Kinase” (Biomolecules, 2022).
